# PubChem BioAssay AID504786, Drosophila RNAi Screening Center | 2011
# Aim: 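Knock-downs reducing HIF reporter induction by the iron chelator DFO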 (primary screen)
# Cell system: Drosophila S2 cells with a stable HIF luciferase reporter
# Knock-down reagent: long dsRNA against Drosophila genes, about 0.2 µg dsRNA per well of a 384-well plate
# Timing: three days of knock-down, then 20 h of DFO before reading
# Treatment: desferrioxamine (DFO) at 100 µM, an iron chelator that mimics hypoxia, for 20 h
# Read-out: 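HIF reporter luminescence in cells given 100 µM DFO for 20 h, using the mouse ldh-a hypoxia-response element, scored as per-plate z-scores; higher means greater loss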
# Direction: z-score: higher = stronger loss of HIF reporter signal
# The screen tested about 21,000 reagents; below is an unselected part of those with a known target gene and a result. 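Primary screen; positive scores mean lost reporter signal, so the sign may be inverted from the usual convention.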 The numbers tell different reagents against one gene apart. Names joined by + are all predicted targets of the reagent.
Target gene,reagent no.,"z-score, replicate 1","z-score, replicate 2","z-score, replicate 3","z-score, replicate 4"
synr (GeneID 33702),1,-0.3,-0.4,,
CG32459 (GeneID 40502),1,-0.4,-0.3,,
Hcs (GeneID 40659),1,-0.4,-0.4,,
Hcs (GeneID 40659),2,-0.3,-0.7,,
dare (GeneID 36203),1,-0.2,0,,
fd3F (retired record) + Crg-1,1,-0.2,-0.5,,
CG10064 (GeneID 38761),1,0,-0.4,,
CG13319 (GeneID 36423),1,0.2,-0.1,,
Frq2 (GeneID 32799),1,-0.3,0.1,,
Pat1 (GeneID 31593),1,-0.3,0.1,,
CG7099 (GeneID 34753),1,-0.3,-0.3,,
nolo (GeneID 35424),1,-0.2,0.1,,
nolo (GeneID 35424),2,-0.3,-0.3,,
nolo (GeneID 35424),3,-0.3,-0.1,,
CG6325 (GeneID 41268),1,-0.4,-0.8,,
CG10674 (GeneID 38602),1,-0.3,0,,
PCID2 (GeneID 39306),1,-0.1,0.7,,
Spase22-23 (GeneID 42885),1,-0.6,0,,
CG17652 (GeneID 33353),1,0.2,-0.2,,
CG34338 (GeneID 5740687),1,-0.1,-0.3,,
CG9577 (GeneID 33016),1,0,-0.3,,
CG3690 (GeneID 31047),1,-0.3,-0.3,,
CG3690 (GeneID 31047),2,-0.3,-0.3,,
CG4168 (GeneID 34889),1,0,0.1,,
CG4168 (GeneID 34889),2,0.3,0.8,,
CG4168 (GeneID 34889),3,-0.3,-0.3,,
TTLL4B (GeneID 33609),1,-0.2,-0.3,,
lncRNA:CR40629 (GeneID 10178881),1,0,0,,
r2d2 (GeneID 34066),1,0,0,,

Individual results from the list.
Under “z-score, replicate 2”, CG3690 (GeneID 31047) #1 is entered as -0.3
Entry for CG34338 (GeneID 5740687) under “z-score, replicate 1”: -0.1
Value of synr (GeneID 33702) in “z-score, replicate 2”: -0.4
For “z-score, replicate 1”, CG32459 (GeneID 40502) is entered as -0.4
Under “z-score, replicate 2”, Hcs (GeneID 40659) #2 is entered as -0.7
Value of Pat1 (GeneID 31593) in “z-score, replicate 2”: 0.1

More reagents follow.
Target gene,reagent no.,"z-score, replicate 1","z-score, replicate 2","z-score, replicate 3","z-score, replicate 4"
CG5880 (GeneID 43268),1,-0.3,-0.2,,
CG7974 (GeneID 38207),1,-0.2,0.1,,
CG33090 (GeneID 34835),1,0,-0.2,,
Socs44A (GeneID 35786),1,-0.1,-0.3,,
rhea (GeneID 38978),1,-0.2,-0.3,,
CG12912 (GeneID 36075),1,4.7,4.5,,
Cyp4d21 (GeneID 34036),1,-0.3,-0.3,,
Tep2 (GeneID 34044),1,0,0.1,,
Tep2 (GeneID 34044),2,0.2,0.5,,
CG11808 (GeneID 36687),1,-0.2,0.1,,
CG14929 + CG4970,1,-0.3,-0.6,,
CG14929 + CG4970,2,-0.4,0,,
Dnaaf6 (GeneID 39598),1,-0.1,-0.5,,
CR9337 (GeneID 3885658),1,-0.3,-0.6,,
tut (GeneID 317996),1,-0.1,0.6,,
CG7069 (GeneID 42621),1,-0.2,-0.3,,
beat-Ib (GeneID 34939),1,-0.3,-0.2,,
CG6567 + CG4565,1,-0.3,-0.2,,
CG9427 (GeneID 41164),1,-0.4,-0.5,,
Pka-C3 (GeneID 39733),1,-0.1,-0.3,,
Pka-C3 (GeneID 39733),2,-0.1,-0.7,,
CG32829 (GeneID 318235),1,0.3,-0.1,1.3,-0.1
CG33340 (GeneID 2768682),1,-0.2,-0.1,,
CG33648 (GeneID 3772188),1,-0.3,0,,
DNAlig1 (GeneID 37791),1,-0.3,0,,
Polr1C (GeneID 33712),1,0.6,1.4,,
arr (GeneID 44279),1,-0.3,-0.3,,
